Values quoted from earlier work, collected in US20190262453A1, “DESIGN AND COMPOSITION OF CELL-STABILIZED PHARMACEUTICAL FORMULATIONS” (THE REGENTS OF THE UNIVERSITY OF MICHIGAN, priority 2016, published 2019).

Settings: in vivo; cited from earlier work

Nc1nc2ccc(OC(F)(F)F)cc2s1 [Riluzole]
Vd: 3.4 L/kg
